Some of the results follow.

Chains of the proteins cited; added tags and fusions are not shown.
UniProt Q0JBA9, entry or part of it: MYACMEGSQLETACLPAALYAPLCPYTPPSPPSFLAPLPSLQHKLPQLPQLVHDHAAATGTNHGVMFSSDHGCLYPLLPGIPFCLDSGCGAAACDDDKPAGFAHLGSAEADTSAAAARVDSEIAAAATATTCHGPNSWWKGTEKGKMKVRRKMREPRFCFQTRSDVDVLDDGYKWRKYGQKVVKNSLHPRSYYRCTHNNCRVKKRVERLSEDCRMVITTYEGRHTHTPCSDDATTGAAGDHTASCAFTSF

For the assay, the target named is OsWRKY34 (Oryza sativa, UniProt Q0JBA9 1-250). Description: protein-binding microarray (RPBM); PBS, 2% BSA, 51.3 ng/ul salmon testes DNA, 50 uM zinc acetate, 200 nM TF, 25 C, 1 h; high values mean tight binding. To be noted: protein: recombinant; tags: N-terminal polyhistidine and DsRed monomer fusion (pET32a); label: CyDye5-dUTP incorporated in the synthesized complementary strand; 3' TTTTT single-stranded linker to array surface; dsDNA, one strand shown. In outline:
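Binding signal here means per-feature fluorescence intensity in arbitrary units. The values were read on an Axon 4000B scanner after a custom Agilent array, double-stranded by primer extension with Cy5-dUTP, was incubated with 200 nM protein at 25 °C for 1 h in PBS with 2% BSA, salmon testes DNA and 50 µM zinc acetate, then washed. The proteins were transcription factors with an N-terminal polyhistidine tag and DsRed, expressed in E. coli BL21-CodonPlus and purified on Ni–NTA.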
Regarding “GCCTCGCGTCCCCGCGATTTCTCACTCGCCATCGCCGACGCGGAGTCACCTAGTGCAG”, the binding signal is 8270 fluorescence intensity (a.u.).

For the sequence “CTAGTAGTAGCTCGTAATCTAGGCTAGTAGCATCCCGTACCGGAGTCACCTAGTGCAG”, the binding signal is 8650 fluorescence intensity (a.u.).

Take “TCCTTTTTTTTCAGTATCTTTTTTTTTTTGCGCCAAAGTCCGGAGTCACCTAGTGCAG”: the binding signal is 8330 fluorescence intensity (a.u.).

For “TTGGCTATCTTCTCTCCTGTATTGACCCATAATTCTGCAGCGGAGTCACCTAGTGCAG”, the binding signal is 8480 fluorescence intensity (a.u.).

Take “AGAAGCCCCACCGCTTCCGCCCCGGCACCGTCGCGCTCCGCGGAGTCACCTAGTGCAG”: the binding signal is 8790 fluorescence intensity (a.u.).

For the sequence “CGTTCGTTCTCTCTCCATCCATTCACGCGATTGACGCGAGCGGAGTCACCTAGTGCAG”, the binding signal was 10100 fluorescence intensity (a.u.).

On to “TTTCTATTGCATTAGTTAGGCTACTTGTTTTAAACTATTCCGGAGTCACCTAGTGCAG”, for which the binding signal was 12500 fluorescence intensity (a.u.).

As to “GGAAGTTCTGAGTCAGGCCCCATCATCTCATTGCTGTCTACGGAGTCACCTAGTGCAG”, the binding signal was 10900 fluorescence intensity (a.u.).

As to “GGGCCTTACTAAATGATTCAGCCCATGGGCCCTACAACACCGGAGTCACCTAGTGCAG”, the binding signal was 9220 fluorescence intensity (a.u.).

For the sequence “TTTGAGGTTTTACTTACAACTTTTGACCACTCGTCTTATTCGGAGTCACCTAGTGCAG”, the binding signal is 10000 fluorescence intensity (a.u.).

As for “GGAGCTAGGCCCAACATCCCAACTGTCACTACTTCATCCACGGAGTCACCTAGTGCAG”, the binding signal is 9340 fluorescence intensity (a.u.).

On to “CTCCCAGCGCAGTGGCTTCGCCCCACGCCCTACTGTTTTACGGAGTCACCTAGTGCAG”, for which the binding signal was 9070 fluorescence intensity (a.u.).

For “ACAATGGCACGGTCTACAAAATATATTTTTGACCTTATTTCGGAGTCACCTAGTGCAG”, the binding signal was 8440 fluorescence intensity (a.u.).

With “TGTGCCATGAAATTTTGTTTGATTCAGTTTAATATATACTCGGAGTCACCTAGTGCAG”, the binding signal is 9120 fluorescence intensity (a.u.).

For “ATTGATGGTTTTATTTTTTTGCGAAGGGGTGGTGACTGGACGGAGTCACCTAGTGCAG”, the binding signal was 9610 fluorescence intensity (a.u.).

As to “GTTCGGCGCAACTTGCTTTTTTTTTTTCCTTTTCTTTCTTCGGAGTCACCTAGTGCAG”, the binding signal is 10500 fluorescence intensity (a.u.).

As to “CCTCCCGTCCTCACCGCCGCCGCCGCCTCACCAGCGCCACCGGAGTCACCTAGTGCAG”, the binding signal was 14300 fluorescence intensity (a.u.).

Turning to “GGCCCTACTACCACAATCCCATGCTCGCCGCCTAGAGAAGCGGAGTCACCTAGTGCAG”, the binding signal is 10200 fluorescence intensity (a.u.).

Regarding “TGTTGTCTTTCGTTTTTCCGCTGCATTTACGTAAGACTTTCGGAGTCACCTAGTGCAG”, the binding signal was 9340 fluorescence intensity (a.u.).

For the sequence “AATCTGTACCCATAAGCCACCACGTTGACCATAATGATTTCGGAGTCACCTAGTGCAG”, the binding signal is 13000 fluorescence intensity (a.u.).

For the sequence “AGTTCCATAGGCTAAAACTCCACCAACTCACATGCTCTCACGGAGTCACCTAGTGCAG”, the binding signal is 8310 fluorescence intensity (a.u.).

As for “CTCTCTCCTCGTCTTCCTCGCGCTGACTCTTCTCCTCCTCCGGAGTCACCTAGTGCAG”, the binding signal is 8620 fluorescence intensity (a.u.).

On to “CCGAGAATGGGTGGTGGGTGGCCTGTGAGTGGCTACCGGCCGGAGTCACCTAGTGCAG”, for which the binding signal is 9250 fluorescence intensity (a.u.).

For the sequence “CGGTGGCCGGTACACGCCCATCTGCTTCCTGTTCACACGACGGAGTCACCTAGTGCAG”, the binding signal was 8050 fluorescence intensity (a.u.).

As for “TGGCGCATTGTCAGCGTGTGCCTTGGCCAAATTTACCCACCGGAGTCACCTAGTGCAG”, the binding signal is 8150 fluorescence intensity (a.u.).

As to “GGTTGAGCGCCGCGGTCATTGCGTGCACTTGCGGTCGAGCCGGAGTCACCTAGTGCAG”, the binding signal is 8830 fluorescence intensity (a.u.).

Turning to “AAACGATTTCTTTTTTTTTTTTTGGTTATGCAGCAACTATCGGAGTCACCTAGTGCAG”, the binding signal was 8790 fluorescence intensity (a.u.).

Consider “TAATTTGTGCTCCACTATACACTTTGACTCAACCCAATTTCGGAGTCACCTAGTGCAG”, for which the binding signal was 9080 fluorescence intensity (a.u.).

As for “ACACCCCGGACTACTTTCGCCGTTCTAAAAAAACATAACCCGGAGTCACCTAGTGCAG”, the binding signal is 8400 fluorescence intensity (a.u.).

As to “TCCCTTGCGCGGCCATTGCTCTCATCCTCGAACCCTTACCCGGAGTCACCTAGTGCAG”, the binding signal is 12100 fluorescence intensity (a.u.).

Regarding “CTGTAACTCTCTATCTCTGTGTATTATTTGTGTATTTTGACGGAGTCACCTAGTGCAG”, the binding signal is 13000 fluorescence intensity (a.u.).

As to “TTAATATATCCTGTTTTTTTTTCATCATTCTCTTTCTTTCCGGAGTCACCTAGTGCAG”, the binding signal was 10200 fluorescence intensity (a.u.).

In the case of “CTCCATATCTGGTTTTTGGGTTGAATGAATCAATTTGGGGCGGAGTCACCTAGTGCAG”, the binding signal was 8790 fluorescence intensity (a.u.).

With “CTGTCAGAATCCTGTGCTTTTCCTATTCCTTTATTTTTTCCGGAGTCACCTAGTGCAG”, the binding signal was 12800 fluorescence intensity (a.u.).

“GACATCACCACAAATCAACCCCTTGCAACCATTTCAATCACGGAGTCACCTAGTGCAG”: the binding signal is 12700 fluorescence intensity (a.u.).

“GCTTGAAGACCATCTATCCATTGTTGTCGCATTGTATCATCGGAGTCACCTAGTGCAG”: the binding signal was 8140 fluorescence intensity (a.u.).

Consider “ATCCCGTTGCGTCCCATTTTCCTCGCCCTCGTCGCTAGTTCGGAGTCACCTAGTGCAG”, for which the binding signal is 11200 fluorescence intensity (a.u.).

For “TGCCTGTATTCTCTATGCTGATCAGCTTACGTTGGCATGTCGGAGTCACCTAGTGCAG”, the binding signal is 8640 fluorescence intensity (a.u.).

As to “GGGCCTCTCTCTCTCTCCGTCTCTCTGGCAGTTGGGCCCCCGGAGTCACCTAGTGCAG”, the binding signal is 8880 fluorescence intensity (a.u.).

Turning to “GTGGTGGTGTTTGGATGAACAGTGAGCAGGCAAATGCTCTCGGAGTCACCTAGTGCAG”, the binding signal is 8110 fluorescence intensity (a.u.).

Consider “TGGATGCCTTCCATGTTGACTTTGTTTTGTATAGACCATACGGAGTCACCTAGTGCAG”, for which the binding signal is 9170 fluorescence intensity (a.u.).

As for “CGCCACCGTACCGCTGCCCGCGCCGAACCCTCGCCATTTCCGGAGTCACCTAGTGCAG”, the binding signal was 9490 fluorescence intensity (a.u.).

Values taken from article PMC7819943, “Rice protein-binding microarrays: a tool to detect cis-acting elements near promoter regions in rice”.
